Measurements from the supplement of paper PMC10849652.
The list shows a part of the results.

By UniProt entry, the sequences of proteins in these tests, tags left out. Where a name states a change or a piece, a line headed by the entry shows the natural chain unless it says otherwise.
UniProt Q13011: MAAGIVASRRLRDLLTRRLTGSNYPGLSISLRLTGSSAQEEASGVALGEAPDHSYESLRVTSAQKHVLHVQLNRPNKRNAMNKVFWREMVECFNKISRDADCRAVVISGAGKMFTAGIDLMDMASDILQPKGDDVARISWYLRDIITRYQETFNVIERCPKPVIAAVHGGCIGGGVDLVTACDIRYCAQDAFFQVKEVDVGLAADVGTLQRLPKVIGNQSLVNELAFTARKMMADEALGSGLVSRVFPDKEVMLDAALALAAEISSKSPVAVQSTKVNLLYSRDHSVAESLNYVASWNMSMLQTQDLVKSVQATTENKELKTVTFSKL
UniProt Q9NXW2: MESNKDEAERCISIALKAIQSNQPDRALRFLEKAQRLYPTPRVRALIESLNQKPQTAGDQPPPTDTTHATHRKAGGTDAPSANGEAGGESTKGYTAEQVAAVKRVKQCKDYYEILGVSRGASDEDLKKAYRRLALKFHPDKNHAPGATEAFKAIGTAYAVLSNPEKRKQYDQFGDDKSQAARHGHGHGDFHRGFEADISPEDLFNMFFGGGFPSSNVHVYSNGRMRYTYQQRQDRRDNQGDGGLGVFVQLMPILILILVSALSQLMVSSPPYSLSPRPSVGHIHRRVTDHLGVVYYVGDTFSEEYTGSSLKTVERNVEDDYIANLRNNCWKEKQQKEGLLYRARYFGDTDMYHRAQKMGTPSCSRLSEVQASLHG
UniProt Q9P2X0: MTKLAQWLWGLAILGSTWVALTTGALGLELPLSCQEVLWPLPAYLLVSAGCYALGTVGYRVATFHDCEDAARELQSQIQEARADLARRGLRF
UniProt Q9Y295: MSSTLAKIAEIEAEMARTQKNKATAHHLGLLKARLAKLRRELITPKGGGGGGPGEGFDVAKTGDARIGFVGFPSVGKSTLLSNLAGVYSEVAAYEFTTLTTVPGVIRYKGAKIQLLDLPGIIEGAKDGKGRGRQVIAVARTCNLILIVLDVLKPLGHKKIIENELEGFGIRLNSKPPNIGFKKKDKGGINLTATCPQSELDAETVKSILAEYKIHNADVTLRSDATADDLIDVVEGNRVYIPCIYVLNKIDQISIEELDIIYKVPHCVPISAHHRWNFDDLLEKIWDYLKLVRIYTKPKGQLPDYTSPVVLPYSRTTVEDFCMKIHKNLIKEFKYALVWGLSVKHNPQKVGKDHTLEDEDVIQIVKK
UniProt Q96DA6: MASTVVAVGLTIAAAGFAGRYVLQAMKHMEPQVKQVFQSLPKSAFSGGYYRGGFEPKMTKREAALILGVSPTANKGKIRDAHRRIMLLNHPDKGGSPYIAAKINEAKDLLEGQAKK
UniProt P42892: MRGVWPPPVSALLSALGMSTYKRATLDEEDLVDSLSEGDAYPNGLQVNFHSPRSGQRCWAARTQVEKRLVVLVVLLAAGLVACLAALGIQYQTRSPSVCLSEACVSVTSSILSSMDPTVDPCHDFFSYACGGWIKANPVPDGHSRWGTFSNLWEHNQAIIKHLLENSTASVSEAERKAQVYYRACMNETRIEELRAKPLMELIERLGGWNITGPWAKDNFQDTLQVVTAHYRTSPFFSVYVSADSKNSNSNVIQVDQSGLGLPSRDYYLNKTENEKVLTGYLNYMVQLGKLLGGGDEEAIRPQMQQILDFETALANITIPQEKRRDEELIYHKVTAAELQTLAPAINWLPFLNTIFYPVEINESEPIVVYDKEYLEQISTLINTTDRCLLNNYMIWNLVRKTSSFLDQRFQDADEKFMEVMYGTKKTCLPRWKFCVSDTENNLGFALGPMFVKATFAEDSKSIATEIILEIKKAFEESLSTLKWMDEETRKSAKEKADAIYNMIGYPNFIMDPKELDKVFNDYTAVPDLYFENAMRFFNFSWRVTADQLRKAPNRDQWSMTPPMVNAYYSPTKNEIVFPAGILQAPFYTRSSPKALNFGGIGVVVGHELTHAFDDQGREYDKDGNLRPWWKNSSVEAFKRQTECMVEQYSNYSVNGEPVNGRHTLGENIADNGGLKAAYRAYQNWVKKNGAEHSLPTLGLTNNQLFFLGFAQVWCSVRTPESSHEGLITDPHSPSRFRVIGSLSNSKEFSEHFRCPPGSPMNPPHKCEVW
UniProt Q8TBM8: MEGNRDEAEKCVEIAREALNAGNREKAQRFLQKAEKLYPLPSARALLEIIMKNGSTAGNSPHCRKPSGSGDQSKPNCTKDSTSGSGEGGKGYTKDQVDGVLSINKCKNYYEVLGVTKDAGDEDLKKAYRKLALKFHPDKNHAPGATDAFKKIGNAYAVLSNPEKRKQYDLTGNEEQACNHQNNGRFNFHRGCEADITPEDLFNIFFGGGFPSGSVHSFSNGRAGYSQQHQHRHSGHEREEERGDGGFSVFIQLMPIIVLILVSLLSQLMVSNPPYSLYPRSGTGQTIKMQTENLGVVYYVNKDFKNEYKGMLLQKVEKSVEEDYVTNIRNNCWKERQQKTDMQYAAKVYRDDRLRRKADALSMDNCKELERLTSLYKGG
UniProt Q99704: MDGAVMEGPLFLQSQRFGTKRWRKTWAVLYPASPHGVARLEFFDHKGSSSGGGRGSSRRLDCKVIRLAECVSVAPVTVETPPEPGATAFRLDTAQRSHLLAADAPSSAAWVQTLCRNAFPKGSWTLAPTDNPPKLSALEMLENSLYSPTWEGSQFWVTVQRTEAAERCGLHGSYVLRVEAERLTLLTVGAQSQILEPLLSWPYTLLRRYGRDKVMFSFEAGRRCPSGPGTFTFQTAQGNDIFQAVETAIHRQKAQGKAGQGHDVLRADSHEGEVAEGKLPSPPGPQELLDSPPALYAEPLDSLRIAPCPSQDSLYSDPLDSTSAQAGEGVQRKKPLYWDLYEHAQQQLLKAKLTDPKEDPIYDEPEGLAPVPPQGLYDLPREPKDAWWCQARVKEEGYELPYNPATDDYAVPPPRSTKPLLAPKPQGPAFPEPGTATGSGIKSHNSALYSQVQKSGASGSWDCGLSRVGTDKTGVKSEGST
UniProt Q96G46: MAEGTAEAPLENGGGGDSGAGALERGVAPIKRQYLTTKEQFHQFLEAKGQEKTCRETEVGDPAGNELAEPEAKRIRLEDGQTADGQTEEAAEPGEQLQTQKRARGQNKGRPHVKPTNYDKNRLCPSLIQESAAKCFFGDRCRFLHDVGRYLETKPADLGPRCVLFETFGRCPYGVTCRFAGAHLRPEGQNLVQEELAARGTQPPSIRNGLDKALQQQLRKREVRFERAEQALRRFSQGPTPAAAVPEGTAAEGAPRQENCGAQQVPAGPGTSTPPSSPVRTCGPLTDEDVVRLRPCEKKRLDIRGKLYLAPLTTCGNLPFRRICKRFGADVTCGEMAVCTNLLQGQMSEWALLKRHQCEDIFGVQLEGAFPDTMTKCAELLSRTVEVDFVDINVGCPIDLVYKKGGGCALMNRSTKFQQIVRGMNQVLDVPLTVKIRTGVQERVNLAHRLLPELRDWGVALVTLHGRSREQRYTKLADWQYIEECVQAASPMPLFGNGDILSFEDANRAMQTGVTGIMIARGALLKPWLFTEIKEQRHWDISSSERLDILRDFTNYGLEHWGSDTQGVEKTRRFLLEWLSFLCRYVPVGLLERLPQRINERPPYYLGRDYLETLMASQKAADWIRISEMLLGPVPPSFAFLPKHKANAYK
UniProt Q8WWZ3: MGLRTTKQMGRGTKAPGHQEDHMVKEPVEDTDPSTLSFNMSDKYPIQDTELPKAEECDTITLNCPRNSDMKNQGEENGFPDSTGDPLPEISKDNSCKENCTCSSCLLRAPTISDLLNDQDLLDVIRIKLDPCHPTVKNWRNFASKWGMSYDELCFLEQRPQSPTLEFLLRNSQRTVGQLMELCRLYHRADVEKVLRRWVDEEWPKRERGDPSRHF
UniProt Q6P2E9: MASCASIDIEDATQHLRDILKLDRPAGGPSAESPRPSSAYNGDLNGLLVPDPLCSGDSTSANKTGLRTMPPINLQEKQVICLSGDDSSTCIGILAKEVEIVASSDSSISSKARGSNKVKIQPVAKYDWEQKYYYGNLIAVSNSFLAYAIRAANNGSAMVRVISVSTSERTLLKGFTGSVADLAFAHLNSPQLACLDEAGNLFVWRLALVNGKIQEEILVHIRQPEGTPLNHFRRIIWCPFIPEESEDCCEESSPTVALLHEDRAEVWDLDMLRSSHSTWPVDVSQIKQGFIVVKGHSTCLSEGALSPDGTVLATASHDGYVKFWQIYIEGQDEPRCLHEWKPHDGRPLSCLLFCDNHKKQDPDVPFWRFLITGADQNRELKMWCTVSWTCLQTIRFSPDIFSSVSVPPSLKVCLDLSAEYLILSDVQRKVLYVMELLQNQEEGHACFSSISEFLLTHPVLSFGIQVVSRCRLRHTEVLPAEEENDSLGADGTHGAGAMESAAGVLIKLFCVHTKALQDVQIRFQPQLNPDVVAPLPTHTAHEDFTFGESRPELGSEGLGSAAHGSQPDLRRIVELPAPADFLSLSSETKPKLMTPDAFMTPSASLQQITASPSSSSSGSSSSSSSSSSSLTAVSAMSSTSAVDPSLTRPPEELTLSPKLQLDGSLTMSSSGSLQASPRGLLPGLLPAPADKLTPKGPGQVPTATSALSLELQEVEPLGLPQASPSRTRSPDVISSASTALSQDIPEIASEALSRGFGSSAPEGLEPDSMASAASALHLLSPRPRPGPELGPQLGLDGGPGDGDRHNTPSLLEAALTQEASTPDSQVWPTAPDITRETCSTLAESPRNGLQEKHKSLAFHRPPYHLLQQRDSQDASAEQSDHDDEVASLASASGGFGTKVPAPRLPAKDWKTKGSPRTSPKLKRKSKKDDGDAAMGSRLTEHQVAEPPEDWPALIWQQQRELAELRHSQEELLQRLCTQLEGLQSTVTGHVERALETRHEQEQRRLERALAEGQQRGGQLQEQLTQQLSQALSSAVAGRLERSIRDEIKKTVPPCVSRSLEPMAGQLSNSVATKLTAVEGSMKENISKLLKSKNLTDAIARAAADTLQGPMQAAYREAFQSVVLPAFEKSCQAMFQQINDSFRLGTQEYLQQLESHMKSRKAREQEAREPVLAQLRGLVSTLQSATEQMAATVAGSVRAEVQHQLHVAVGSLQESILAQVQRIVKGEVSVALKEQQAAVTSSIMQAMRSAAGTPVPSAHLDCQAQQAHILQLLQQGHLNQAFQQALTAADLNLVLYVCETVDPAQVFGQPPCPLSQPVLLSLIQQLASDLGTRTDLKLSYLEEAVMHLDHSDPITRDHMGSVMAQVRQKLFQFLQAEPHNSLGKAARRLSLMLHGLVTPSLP
UniProt Q9H3Z4: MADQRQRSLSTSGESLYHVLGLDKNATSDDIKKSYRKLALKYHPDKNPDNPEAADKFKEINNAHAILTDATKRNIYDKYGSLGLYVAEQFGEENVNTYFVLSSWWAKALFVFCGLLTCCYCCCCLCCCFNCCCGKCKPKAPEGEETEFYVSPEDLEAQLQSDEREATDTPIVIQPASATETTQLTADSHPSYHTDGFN
UniProt Q5SXM8: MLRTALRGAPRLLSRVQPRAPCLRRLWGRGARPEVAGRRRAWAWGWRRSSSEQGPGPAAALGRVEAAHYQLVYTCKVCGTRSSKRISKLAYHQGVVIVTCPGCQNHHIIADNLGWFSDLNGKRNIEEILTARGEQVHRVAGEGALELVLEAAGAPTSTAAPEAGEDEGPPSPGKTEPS
UniProt Q5JPH6: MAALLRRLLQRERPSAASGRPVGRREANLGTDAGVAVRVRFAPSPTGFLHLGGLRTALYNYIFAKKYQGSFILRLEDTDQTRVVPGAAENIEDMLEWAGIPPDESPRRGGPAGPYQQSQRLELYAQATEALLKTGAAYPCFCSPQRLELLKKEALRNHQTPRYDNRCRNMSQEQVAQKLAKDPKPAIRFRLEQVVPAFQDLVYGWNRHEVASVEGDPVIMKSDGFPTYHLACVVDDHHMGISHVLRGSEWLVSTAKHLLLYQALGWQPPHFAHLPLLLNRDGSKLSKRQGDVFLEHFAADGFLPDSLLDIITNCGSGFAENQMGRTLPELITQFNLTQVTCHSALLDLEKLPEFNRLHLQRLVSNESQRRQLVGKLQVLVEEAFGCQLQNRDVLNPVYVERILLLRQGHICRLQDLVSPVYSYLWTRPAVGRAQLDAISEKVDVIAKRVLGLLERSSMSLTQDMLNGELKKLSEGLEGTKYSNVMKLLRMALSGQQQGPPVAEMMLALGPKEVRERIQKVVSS
UniProt O77932: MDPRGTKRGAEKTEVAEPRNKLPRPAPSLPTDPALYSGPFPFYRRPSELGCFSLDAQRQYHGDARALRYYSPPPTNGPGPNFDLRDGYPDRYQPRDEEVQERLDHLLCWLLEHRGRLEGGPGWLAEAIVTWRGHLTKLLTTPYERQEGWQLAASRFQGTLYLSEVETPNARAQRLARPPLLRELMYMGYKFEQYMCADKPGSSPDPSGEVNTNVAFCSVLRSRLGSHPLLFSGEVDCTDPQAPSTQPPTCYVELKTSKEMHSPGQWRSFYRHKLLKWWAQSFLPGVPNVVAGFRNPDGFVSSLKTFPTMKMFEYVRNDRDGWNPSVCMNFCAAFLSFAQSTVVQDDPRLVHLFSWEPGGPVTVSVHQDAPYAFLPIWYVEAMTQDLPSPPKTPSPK

Key:
Assay in all cases: log2 fold change, soluble protein after heating vs DMSO (PISA); higher = thermal stabilisation; K562 cells, 10 uM, 30 min; active = over 0.2 and 3.5 SD of the protein, either way, in both replicates (recomputed)
[1] = compound: CC[C@@H]1C(=O)N(C)c2cnc(Nc3ccc(C(=O)NC4CCN(C)CC4)cc3OC)nc2N1C1CCCC1
Procedure, shortened: (§1)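 Thermal stability values are relative to control samples and come from duplicates. They are expressed as log2 fold changes. For measurement, K562 cells (2×10^6 cells/mL) received 10 μM compound for 30 min, and aliquots were heated for 3 min over 48°C-58°C, pooled, and extracted at 4°C in PBS with 0.5% NP-40. Soluble protein, the supernatant after 21,000xg for 90 min, was quantified by TMTpro 16plex LC-MS/MS with equalised channel sums.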

volasertib = compound: CC[C@@H]1C(=O)N(C)c2cnc(Nc3ccc(C(=O)N[C@H]4CC[C@H](N5CCN(CC6CC6)CC5)CC4)cc3OC)nc2N1C(C)C [volasertib]
Procedure, shortened: as §1

[2] = compound: CC[C@H](C)N1C=C(C2=C(C=C(C=C21)C3=CN=C(C=C3)N4CCNCC4)C(=O)NCC5=C(C=C(NC5=O)C)C)C
Procedure, shortened: as §1

epoxomicin = compound: CC[C@H](C)[C@@H](C(=O)N[C@@H]([C@@H](C)O)C(=O)N[C@@H](CC(C)C)C(=O)[C@]1(CO1)C)NC(=O)[C@H]([C@@H](C)CC)N(C)C(=O)C [epoxomicin]
Procedure, shortened: as §1

[3] = compound: CCn1c(C(=O)N(C2CC2)C2CC2)cc2c3c(ncn3C)c(Nc3cc(C)n(C)n3)nc21
Procedure, shortened: as §1

[4] = compound: CN(C)CC(=O)Nc1ccc2[nH]c(=O)c3ccccc3c2c1
Procedure, shortened: as §1

rosiglitazone = compound: CN(CCOC1=CC=C(C=C1)C[C@H]2C(=O)NC(=O)S2)C3=CC=CC=N3 (racemic) [rosiglitazone]
Procedure, shortened: as §1

[5] = compound: CN1C2=C(C3=C1C(=O)N(N=C3)CC4=CC(=CC=C4)N)SC(=C2)S(=O)C
Procedure, shortened: as §1

saracatinib = compound: CN1CCN(CCOc2cc(OC3CCOCC3)c3c(Nc4c(Cl)ccc5c4OCO5)ncnc3c2)CC1 [saracatinib]
Procedure, shortened: as §1

sotrastaurin = compound: CN1CCN(c2nc(C3=C(c4c[nH]c5ccccc45)C(=O)NC3=O)c3ccccc3n2)CC1 [sotrastaurin]
Procedure, shortened: as §1

alvocidib = compound: CN1CC[C@H](c2c(O)cc(O)c3c(=O)cc(-c4ccccc4Cl)oc23)[C@H](O)C1 [alvocidib]
Procedure, shortened: as §1

Tubastatin A = compound: CN1CCc2c(c3ccccc3n2Cc2ccc(C(=O)NO)cc2)C1 [Tubastatin A]
Procedure, shortened: as §1

[6] = compound: CNC(=O)C1=CC=CC=C1NC2=NC(=NC=C2Cl)NC3=C(C=C(C=C3)N4CCOCC4)OC
Procedure, shortened: as §1

defactinib = compound: CNC(=O)c1ccc(Nc2ncc(C(F)(F)F)c(NCc3nccnc3N(C)S(C)(=O)=O)n2)cc1 [defactinib]
Procedure, shortened: as §1

rucaparib = compound: CNCc1ccc(-c2[nH]c3cc(F)cc4c3c2CCNC4=O)cc1 [rucaparib]
Procedure, shortened: as §1

[7] = compound: CNc1nc(-c2ccc3c(N)n[nH]c3c2)cc(N2C[C@@H](C(=O)NC3CCCCC3)CC[C@H]2C)n1
Procedure, shortened: as §1

encorafenib = compound: COC(=O)N[C@@H](C)CNc1nccc(-c2cn(C(C)C)nc2-c2cc(Cl)cc(NS(C)(=O)=O)c2F)n1 [encorafenib]
Procedure, shortened: as §1

[8] = compound: COC(=O)[C@H](CCSC)NC(=O)C1=C(C=C(C=C1)NC[C@H](CS)N)C2=CC=CC=C2
Procedure, shortened: as §1

[9] = compound: CCn1cc(-c2ccnc3[nH]c(-c4cccc(CN(C)C)c4)cc23)c(-c2ccc(NC(=O)N(C)C)cc2)n1
Procedure, shortened: as §1

[10] = compound: CN1CCC(CNc2ccc3ncc(-c4cccc(OC(F)(F)F)c4)n3n2)CC1
Procedure, shortened: as §1

Row | Target | log2 fold change [1] | log2 fold change (volasertib) | log2 fold change [2] | log2 fold change (epoxomicin) | log2 fold change [3] | log2 fold change [4] | log2 fold change (rosiglitazone) | log2 fold change [5] | log2 fold change (saracatinib) | log2 fold change (sotrastaurin) | log2 fold change (alvocidib) | log2 fold change (Tubastatin A) | log2 fold change [6] | log2 fold change (defactinib) | log2 fold change (rucaparib) | log2 fold change [7] | log2 fold change (encorafenib) | log2 fold change [8] | log2 fold change [9] | log2 fold change [10]
1 | DPY19L1, A0A1B0GW05 | inactive: -0.044 | inactive: -0.201 | inactive: -0.018 | inactive: 0.014 | inactive: 0.074 | inactive: 0.097 | inactive: 0.08 | inactive: -0.004 | inactive: 0.095 | inactive: -0.046 | inactive: 0.025 | inactive: 0.021 | inactive: 0.071 | inactive: 0.014 | inactive: 0.041 | inactive: -0.052 | inactive: 0.046 | inactive: 0.047 |  | 
2 | DPYSL2 (UniProt Q16555) | inactive: 0.055 | inactive: -0.037 | inactive: 0.014 | inactive: 0.129 |  | inactive: 0.11 |  | inactive: -0.058 | inactive: 0.127 | inactive: 0.062 |  | inactive: -0.003 | inactive: -0.066 | inactive: 0.02 | inactive: 0.015 | inactive: -0.032 | inactive: -0.054 | inactive: -0.009 | inactive: -0.073 | inactive: -0.067
3 | ECH1 (UniProt Q13011) | inactive: 0.019 | inactive: 0.276 | inactive: 0.024 | inactive: 0.036 |  | inactive: 0.023 |  | inactive: -0.041 | inactive: -0.037 | active: 0.727 |  | active: 0.519 | inactive: 0.122 | inactive: -0.023 | inactive: -0.012 | inactive: -0.031 | inactive: -0.035 | inactive: -0.024 | inactive: -0.021 | active: 0.694
4 | DNAJB12 (UniProt Q9NXW2) | inactive: -0.045 | inactive: -0.123 | inactive: -0.033 | inactive: -0.003 |  | inactive: 0.022 |  | inactive: 0.068 | inactive: 0.022 | inactive: 0.068 |  | inactive: -0.006 | inactive: 0.024 | inactive: -0.03 | inactive: 0.079 | inactive: -0.011 | inactive: -0.018 | inactive: -0.021 | inactive: 0.024 | inactive: -0.081
5 | DPM3 isoform 2 (UniProt Q9P2X0) | inactive: 0 | inactive: 0.129 | inactive: -0.107 | inactive: 0.186 | inactive: 0.049 | inactive: 0.017 | inactive: 0.004 | inactive: -0.007 | inactive: 0.015 | inactive: 0.068 | inactive: -0.124 | inactive: 0.029 | inactive: 0.047 | inactive: 0.015 | inactive: 0.04 | inactive: -0.044 | inactive: -0.033 | inactive: -0.287 |  | 
6 | DRG1 (UniProt Q9Y295) | inactive: 0.083 | inactive: 0.118 | inactive: -0.006 | inactive: -0.036 | inactive: 0.011 | inactive: -0.032 | inactive: -0.026 | inactive: 0.046 | inactive: -0.014 | inactive: 0.002 | inactive: 0.072 | inactive: 0.006 | inactive: 0.073 | inactive: 0.09 | inactive: 0.056 | inactive: -0.015 | inactive: 0.022 | inactive: 0.016 | inactive: 0.011 | inactive: 0.093
7 | DNAJC19 (UniProt Q96DA6) | inactive: -0.094 | inactive: -0.042 | inactive: -0.014 | inactive: -0.015 |  | inactive: 0.002 |  | inactive: -0.05 | inactive: 0.025 | inactive: -0.029 |  | inactive: -0.038 | inactive: 0.003 | inactive: -0.027 | inactive: 0.01 | inactive: -0.028 | inactive: -0.044 | inactive: -0.012 | inactive: -0.022 | inactive: -0.148
8 | ECE1 (UniProt P42892) | inactive: -0.259 | inactive: -0.295 | inactive: 0.013 | inactive: 0.038 | inactive: 0 | inactive: -0.055 | inactive: 0.08 | inactive: 0.082 | inactive: 0.008 | inactive: -0.081 | inactive: -0.042 | inactive: -0.04 | inactive: -0.065 | inactive: -0.062 | inactive: -0.133 | inactive: -0.005 | inactive: 0.21 | inactive: 0.001 | inactive: -0.109 | inactive: -0.001
9 | DNAJB14 (UniProt Q8TBM8) | inactive: 0.089 | inactive: -0.061 | inactive: 0.028 | inactive: 0.109 | inactive: -0.058 | inactive: 0.077 | inactive: 0.025 |  |  | inactive: -0.024 | inactive: -0.074 | inactive: 0.038 | inactive: -0.167 | inactive: 0.001 | inactive: -0.023 |  | inactive: -0.093 | inactive: -0.078 | inactive: -0.045 | inactive: -0.008
10 | DOK1 (UniProt Q99704) | inactive: -0.125 | inactive: -0.615 | inactive: 0.367 | inactive: -0.115 | inactive: -0.102 | inactive: -0.115 | inactive: -0.043 |  |  | inactive: -0.037 | inactive: 0.042 | inactive: 0.017 | inactive: -0.036 | inactive: -0.111 | inactive: 0.206 |  | inactive: -0.043 | inactive: 0.06 |  | 
11 | DYRK1A isoform 2 (UniProt Q13627) | inactive: 0.015 | inactive: -0.005 | inactive: 0.104 | inactive: 0.048 |  | inactive: 0.014 |  | inactive: -0.024 | inactive: -0.046 | inactive: 0.022 |  | inactive: 0.058 | active: -0.264 | inactive: 0.03 | inactive: 0.036 | inactive: 0.029 | inactive: 0.014 | inactive: -0.021 | inactive: -0.05 | inactive: -0.086
12 | DUS3L (UniProt Q96G46) | inactive: -0.162 | active: -0.331 | inactive: 0.017 | inactive: 0.087 |  | inactive: 0.028 |  | inactive: 0.021 | inactive: 0.02 | inactive: -0.155 |  | inactive: -0.028 | inactive: 0.022 | inactive: -0.148 | inactive: 0.204 | inactive: -0.033 | inactive: 0.016 | inactive: 0.003 | inactive: 0.02 | inactive: -0.04
13 | EDARADD (UniProt Q8WWZ3) | inactive: -0.012 | inactive: 0.103 | inactive: -0.032 | inactive: 0.006 | inactive: -0.083 | inactive: -0.043 | inactive: 0.098 | inactive: -0.051 | inactive: 0.089 | inactive: 0.081 | inactive: -0.008 | inactive: -0.106 | inactive: -0.058 | inactive: -0.009 | inactive: 0.018 | inactive: -0.028 | inactive: -0.038 | inactive: 0.059 | inactive: 0.002 | inactive: -0.017
14 | EDC4 (UniProt Q6P2E9) | inactive: -0.126 | active: -0.47 | inactive: 0.042 | inactive: 0 |  | inactive: -0.006 |  | inactive: 0.07 | inactive: -0.023 | inactive: -0.109 |  | inactive: 0.016 | inactive: -0.163 | inactive: -0.148 | inactive: -0.012 | inactive: -0.099 | inactive: 0.113 | inactive: 0.005 | inactive: 0.039 | inactive: -0.084
15 | DNAJC5 (UniProt Q9H3Z4) | inactive: 0.063 | inactive: 0.132 | inactive: -0.054 | inactive: -0.04 | inactive: 0 | inactive: -0.032 | inactive: -0.014 | inactive: -0.088 | inactive: 0.112 | inactive: 0.083 |  | inactive: -0.07 | inactive: 0.019 | inactive: 0.034 | inactive: 0.016 | inactive: 0.039 | inactive: -0.022 | inactive: -0.022 | inactive: 0.029 | inactive: 0.172
16 | DNLZ (UniProt Q5SXM8) | inactive: 0 | inactive: 0.072 | inactive: -0.039 | inactive: 0.213 | inactive: 0 | inactive: -0.029 | inactive: 0.025 | inactive: -0.089 | inactive: 0.032 | inactive: 0.121 | inactive: 0.06 | inactive: 0.032 | inactive: -0.053 | inactive: 0.045 | inactive: 0.069 | inactive: -0.111 | inactive: 0.034 | inactive: 0.036 |  | 
17 | EARS2 isoform 2 (UniProt Q5JPH6) | inactive: -0.308 | inactive: -0.508 | inactive: 0.113 | inactive: 0.199 | inactive: -0.329 | inactive: 0.171 | inactive: 0.039 | inactive: -0.143 | inactive: 0.014 | inactive: -0.048 |  | inactive: 0.042 | inactive: -0.125 | inactive: -0.08 | inactive: 0.104 | inactive: 0.06 | inactive: -0.092 | inactive: -0.074 |  | 
18 | DXO (UniProt O77932) | inactive: 0.112 |  | inactive: -0.022 | inactive: -0.082 | inactive: 0.062 | inactive: -0.048 | inactive: 0.097 | inactive: -0.085 | inactive: 0.066 |  | inactive: 0.029 | inactive: 0.029 | inactive: 0.047 | inactive: 0.051 | inactive: -0.09 | inactive: -0.026 | inactive: 0.25 | inactive: 0.069 | inactive: -0.074 | inactive: -0.123

Looked up above:
DPYSL2 (UniProt Q16555) – log2 fold change (epoxomicin): inactive: 0.129
DPY19L1, A0A1B0GW05 – log2 fold change (sotrastaurin): inactive: -0.046
